According to PMC9897159:
No constants are given. Whether binding was seen depends on the method and setting. In cells and extracts the contact can be indirect. Some binding calls cover weakened binding; strength is not graded here.

Key:
[1] = target: SARS-CoV-2 E protein fused to YFP (SARS-CoV-2) (UniProt P0DTC4); assay: FRET or BRET
[2] = target: SARS-CoV-2 E protein deletion mutant lacking amino acids 53 to 65, HA-tagged (SARS-CoV-2) (UniProt P0DTC4); assay: co-IP

Substance | binding [1] | binding [2]
human RNF5 fused to ECFP (from UniProt Q99942 1-180) (enzyme) | binds | –
human RNF5 with a Flag tag (from UniProt Q99942 1-180) (enzyme) | – | binds
